Assay results: patent US4278612A, “2-Chloro-2-alkyl substituted peroxyesters” (priority 1979, dated 1981)

Test: Hot block gel tests with polyester resin
Conditions: 1% wt peroxide, block 180 ± 1° F. (82° C.)

| Structure (SMILES) | Peak Temp (SET 1) [°F.] | Peak Temp (SET 2) [°F.] | Peak Temp (SET 3) [°F.] |
| --- | --- | --- | --- |
| O=C(OOC(=O)c1ccccc1)c1ccccc1 [BZP, Benzoyl Peroxide, reference compound] | 248 | 251 | 252 |
| CCCC(C)(Cl)C(=O)OOC(C)(C)CCC(C)(C)OOC(=O)C(C)(Cl)CCC (centres unmarked) [DM--DCMPeH, 2,5-Dimethyl-2,5-di(2-chloro-2-methylpentanoylperoxy) hexane] | – | – | 263 |
| CC(C)(C#CC(C)(C)OOC(=O)C(C)(C)Cl)OOC(=O)C(C)(C)Cl [DM--DCMPrH, 2,5-dimethyl-2,5-di(2-chloro-2-methylpropionylperoxy) hexyne-3] | – | – | 255 |
| CCC(C)(C)OOC(=O)C(Cl)(CC)CC [TAPCEB, t-Amyl peroxy 2-chloro-2-ethyl butyrate] | – | 264 | – |
| CCC(C)(C)OOC(=O)C(C)(C)Cl [TAPCMPr, t-Amyl peroxy 2-chloro-2-methyl propionate] | 262 | – | – |
| CCC(Cl)(CC)C(=O)OOC(C)(C)C [TBPCEB, t-Butyl peroxy 2-chloro-2-ethyl butyrate] | – | 266 | – |
| CCCCC(Cl)(CC)C(=O)OOC(C)(C)C (centres unmarked) [TBPCEH, t-Butyl peroxy 2-chloro-2-ethyl hexanoate] | 260 | 269 | 264 |
| CCCC(C)(Cl)C(=O)OOC(C)(C)C (centres unmarked) [TBPCMPe, t-Butyl peroxy 2-chloro-2-methyl pentanoate] | 254 | – | – |
| CC(C)(C)OOC(=O)C(C)(C)Cl [TBPCMPr, t-Butyl peroxy 2-chloro-2-methyl propionate, reference compound] | 259 | 268 | – |
